Test results reported in PubChem BioAssay AID624297 (National Center for Advancing Translational Sciences (NCATS), 2012).
Out of some 340,000 compounds screened, about 6,200 (1.8%) were called active. The inconclusive results got no clear call from the source; some entries with a clear call stand among them for comparison. The call rests on the fitted dose curve; in most records, active means well fitted activation curve with a large enough effect; inconclusive means small, poorly fitted or top-dose-only effect; inactive means no such curve, though single readings can be large or run the other way. Potencies of inconclusive entries are doubtful fits and often do not repeat.

experiment: A quantitative high throughput screen for small molecules that induce DNA re-replication in SW480 colon adenocarcinoma cells.; further: nearly all actives have a fitted effect of over 55% in size; details: Hoechst DNA content imaging, 48 h; series mostly up to 46.1 µM
Method in brief: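 Quantitative HTS format with DMSO vehicle controls; 48 hr drug incubation at 37 C, then 40 min Hoechst staining and scanning imager measurement at 405 nm excitation.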
Potency means the concentration at half of the fitted maximal effect.

Row | Compound | Potency
1 | CS/C(=N\NC(N)=O)c1ccccc1 | inconclusive: 0.103 µM [activator, full curve, poor fit]
2 | C/C(=C\C(=S)Nc1ccccc1)Nc1ccc2ccccc2c1 | inconclusive: 4.61 µM [activator, full curve, poor fit]
3 | COC(=O)c1cccc(/C=N/NC(N)=S)c1O | inconclusive: 23.1 µM [activator, partial curve, poor fit]
4 | Cc1ccccc1/C=N/Nc1nc2ccccc2c(=O)n1O | inconclusive: 20.6 µM [activator, partial curve, poor fit]
5 | O=C(Cn1ccc([N+](=O)[O-])n1)N1CCc2ccccc21 | inconclusive: 6.51 µM [activator, single point]
6 | Cc1ccc(C)c2[nH]c(=O)c(C(c3nnnn3Cc3ccco3)N3CCc4ccccc4C3)cc12 (configuration not stated) | inconclusive: 8.2 µM [activator, partial curve, poor fit]
7 | O=C(Nc1ccc(Cl)cn1)c1ccc2c(c1)OCCO2 | inconclusive: 13 µM [activator, single point]
8 | O=C(C1=C[C@@H](c2ccc(C(F)(F)F)cc2)C[C@@H](OCCCCO)O1)N1CCN(Cc2ccccc2)CC1 | inconclusive: 29.1 µM [activator, single point]
9 | Cc1ccc(C(=O)NCCNc2nc3cc(C)c(C)cc3cc2C)cc1 | active: 8.2 µM
10 | COc1ccc(NC(=O)c2csc(C)c2)cc1OC | inconclusive: 3.26 µM [activator, single point]
11 | N#CCC(=O)Nc1sc2c(c1C(N)=O)CCCC2 | inactive
12 | CCOC(=O)c1c(-c2ccccc2)csc1NC(=O)CSc1ccccc1 | inactive
13 | C=CCN1C(=O)N/C(=C/c2ccc(C)o2)C1=O | inconclusive: 18.4 µM [activator, single point]
14 | C(=C\c1ccc2ccccc2n1)/c1ccccc1 | inconclusive: 18.4 µM [activator, single point]
15 | COc1ccc(CN(CC2CCCO2)C(=O)c2cc3sccc3n2C)c(OC)c1 (configuration not stated) | inconclusive: 29.1 µM [activator, single point]
16 | COc1cccc(/C=N/NC(=O)c2ccc(N3CCCC3=O)cc2)c1 | active: 1.84 µM
17 | COc1ccc(CN2CCN(c3ccc(F)cc3)CC2)c(OC)c1OC | inconclusive: 16.4 µM [activator, single point]
18 | FC(F)(F)c1cccc(NC(=S)N2CCCC2)c1 | inactive
19 | Cc1ccc(S(=O)(=O)N2CCOCC2)cc1C(=O)NCCN1C(=O)S/C(=C\c2ccccc2Cl)C1=O | inactive
20 | COc1ccc(C2=NN(C(N)=S)C(c3ccccc3)C2)cc1 (configuration not stated) | inconclusive: 29.1 µM [activator, single point]
21 | Cc1cccc(C)c1NC(=O)CN(C)c1ccc(C(F)(F)F)cn1 | active: 11.6 µM
22 | COc1cccc2c1C(=O)C=C(C)C2=O | inconclusive: 20.6 µM [activator, partial curve, poor fit]
23 | CCOC(=O)c1sc(=S)n(C)c1NC(=O)c1ccc(OC)cc1 | inactive
24 | COC(=O)[C@@H](NC(=O)Nc1cccc(Br)c1)C(C)C | inconclusive: 23.1 µM [activator, single point]

Entries above that have four or more nitrogen atoms:
Row | Compound | Potency
4 | Cc1ccccc1/C=N/Nc1nc2ccccc2c(=O)n1O | inconclusive: 20.6 µM [activator, partial curve, poor fit]
5 | O=C(Cn1ccc([N+](=O)[O-])n1)N1CCc2ccccc21 | inconclusive: 6.51 µM [activator, single point]
6 | Cc1ccc(C)c2[nH]c(=O)c(C(c3nnnn3Cc3ccco3)N3CCc4ccccc4C3)cc12 (configuration not stated) | inconclusive: 8.2 µM [activator, partial curve, poor fit]

Next results follow.

Row | Compound | Potency
25 | c1ccc(C[C@H]2CNCCN2CCC23CC4CC(CC(C4)C2)C3)cc1 | inconclusive: 23.1 µM [activator, partial curve, poor fit]
26 | Cc1ccccc1OCCCN1C(=O)C(=O)c2cccc(C)c21 | inactive
27 | CCOC(=O)NC(=O)/C(C#N)=N/Nc1c(F)cccc1F | inactive
28 | CCc1ccc(S(=O)(=O)Nc2ccc(-c3nc4cccnc4s3)cc2)s1 | inactive
29 | O=C(NCc1ccc(F)cc1)c1noc2c1CCCC2 | inconclusive: 0.141 µM [activator, full curve, poor fit]
30 | COc1ccc(S(=O)(=O)N(C)C)cc1NC(=O)c1ccc2c(c1)NC(=O)C(C)S2 (configuration not stated) | inactive
31 | Cc1csc(NC(=O)c2sc3nc(-c4cccs4)ccc3c2N)n1 | inconclusive: 29.1 µM [activator, single point]
32 | Cc1cccc(CCN2C(Nc3ccccc3)=NC[C@@H]2CC(C)C)c1 | inconclusive: 20.6 µM [activator, single point]
33 | CCn1cc(Br)c(C(=O)Nc2cccc(Cl)c2)n1 | inconclusive: 29.1 µM [activator, single point]
34 | CCN(C(=O)C1=COCCO1)c1nc2c(C)cccc2s1 | inactive
35 | CC(C)(C)C1CCc2sc(-c3nnc(CCl)o3)cc2C1 (configuration not stated) | inconclusive: 20.6 µM [activator, single point]
36 | CCCS(=O)(=O)Nc1cccc(-c2ccc3nnc(C)n3n2)c1 | active: 18.4 µM
37 | COc1ccc(N2CCN(CCCNC(=O)Nc3ccccc3)CC2)cc1 | inactive
38 | COc1ccc(OC)c(S(=O)(=O)Nc2ccccc2C(=O)N2CCCCC2)c1 | inconclusive: 14.6 µM [activator, partial curve, poor fit]
39 | COc1ccc(OC)c(NC(=O)CN(Cc2ccc(F)cc2)C2CCCCC2)c1 | inactive
40 | COc1ccccc1-c1ccc(SCC(=O)NCCc2ccccc2)nn1 | inactive
41 | CC(CNS(=O)(=O)c1ccccc1)Sc1ncccn1 (configuration not stated) | inactive
42 | CCN(c1ccccc1)S(=O)(=O)c1ccc(C(=O)Nc2nnc(C3CC3)o2)cc1 | inconclusive: 20.6 µM [activator, single point]
43 | Nc1c(C=C2C=CC(=O)C=C2)c(=O)nc2snc(SCc3ccccc3)n12 | inconclusive: 1.46 µM [activator, partial curve, poor fit]
44 | Cc1cc(C)c2nc(N3CCCN(C(=O)c4cnccn4)CC3)c(C#N)cc2c1 | inconclusive: 20.6 µM [activator, single point]
45 | Cc1ccc(SC(C)c2nc(-c3cccnc3)no2)cc1 (configuration not stated) | inconclusive: 29.1 µM [activator, single point]
46 | O=C(NCc1ccccc1)Nc1cccn(Cc2ccccc2Cl)c1=O | inconclusive: 18.4 µM [activator, single point]
47 | COc1ccc(-n2c(=O)[nH]c3cc(C(=O)NCCc4ccccc4)ccc3c2=O)cc1OC | inconclusive: 1.64 µM [activator, partial curve, poor fit]
